Source: PubChem BioAssay AID1259405 (NCATS, 2018)
The whole screen tested about 50,000 reagents; this is a part drawn at random. Of all reagents, about 4,000 (8%) got an active call. 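Mouse siRNA library applied to hamster cells; one well for each siRNA.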

- Screen: 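Silenced genes that increase secreted GFP made by CHO cells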 (primary screen)
- System: Chinese hamster CHO-K1 ovary cells with stable secreted eGFP expression
- Reagent: single siRNA against mouse genes, 0.8 pmol siRNA per well (2 µl of 400 nM stock)
- Timing: 3 days
- Detection: 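Percent of the per-plate non-targeting control median for intracellular GFP per well by laser scanning cytometry and for cell viability by ATP luminescence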
- Direction: GFP, % of control: higher = more GFP per well, higher productivity; viability (ATP), % of control: higher = more viable cells (more ATP)
- Rule for the call: 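Called active when intracellular GFP, relative to negative control, is at or above 120%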

| gene | PubChem SID | GFP, % of control | viability (ATP), % of control | Call |
| --- | --- | --- | --- | --- |
| Stradb (GeneID 227154) | SID363570962 | 78.2 | 79.3 | inactive |
| Galnt11 (GeneID 231050) | SID363570681 | 86.3 | 126 | inactive |
| Galnt11 (GeneID 231050) | SID363579481 | 76.9 | 113 | inactive |
| Galnt11 (GeneID 231050) | SID363583353 | 120 | 124 | active |
| Ube2v2 (GeneID 70620) | SID363572812 | 75.8 | 75.6 | inactive |
| Ube2v2 (GeneID 70620) | SID363578092 | 69.9 | 64.6 | inactive |
| Ube2v2 (GeneID 70620) | SID363582316 | 65.4 | 94.7 | inactive |
| Lsamp (GeneID 268890) | SID363573519 | 126 | 84.2 | active |
| Lsamp (GeneID 268890) | SID363588758 | 56.5 | 53.8 | inactive |
| Nrap (GeneID 18175) | SID363541450 | 93.5 | 56.4 | inactive |
| Nrap (GeneID 18175) | SID363556077 | 80.6 | 72.9 | inactive |
| Nrap (GeneID 18175) | SID363566366 | 150 | 68.2 | active |
| Coa8 (GeneID 68020) | SID363543712 | 60.5 | 62 | inactive |
| Coa8 (GeneID 68020) | SID363551448 | 67 | 92.7 | inactive |
| Coa8 (GeneID 68020) | SID363559053 | 92.1 | 72.8 | inactive |
| Spmip9 (GeneID 74221) | SID363540862 | 83.9 | 98.9 | inactive |
| Spmip9 (GeneID 74221) | SID363543313 | 46.2 | 67.4 | inactive |
| Spmip9 (GeneID 74221) | SID363552806 | 104 | 75.1 | inactive |
| Gsap (GeneID 212167) | SID363542862 | 47 | 55 | inactive |
| Gsap (GeneID 212167) | SID363546379 | 54.4 | 37.7 | inactive |
| Gsap (GeneID 212167) | SID363548135 | 74.6 | 92.7 | inactive |
| Xrcc1 (GeneID 22594) | SID363569247 | 114 | 117 | inactive |
| Xrcc1 (GeneID 22594) | SID363583679 | 85.6 | 93.4 | inactive |
| Mos (GeneID 17451) | SID363571016 | 57 | 74.3 | inactive |
| Ssbp3 (GeneID 72475) | SID363545843 | 64.7 | 54.9 | inactive |
| Ssbp3 (GeneID 72475) | SID363549356 | 94.2 | 94.2 | inactive |
| Ssbp3 (GeneID 72475) | SID363563162 | 80.6 | 61.9 | inactive |
| Krtap26-1 (GeneID 69533) | SID363543457 | 62.9 | 95.8 | inactive |
| Krtap26-1 (GeneID 69533) | SID363552950 | 49.8 | 56.2 | inactive |
| Krtap26-1 (GeneID 69533) | SID363558798 | 75 | 65 | inactive |
| Kif5a (GeneID 16572) | SID363572249 | 97.6 | 82.3 | inactive |
| Kif5a (GeneID 16572) | SID363574009 | 117 | 97.6 | inactive |
| Crlf1 (GeneID 12931) | SID363582354 | 100 | 114 | inactive |
| Crlf1 (GeneID 12931) | SID363584114 | 60 | 57.3 | inactive |
| Cygb (GeneID 114886) | SID363570088 | 82.9 | 96.8 | inactive |
| Cygb (GeneID 114886) | SID363576424 | 102 | 93.7 | inactive |
| Cygb (GeneID 114886) | SID363579592 | 65.2 | 75.4 | inactive |
| Rbm4b (GeneID 66704) | SID363569572 | 80 | 94.9 | inactive |
| Rbm4b (GeneID 66704) | SID363577316 | 115 | 73.3 | inactive |
| Rbm4b (GeneID 66704) | SID363578724 | 49.8 | 51.1 | inactive |
| Ifnar1 (GeneID 15975) | SID363568949 | 70.4 | 101 | inactive |
| Ifnar1 (GeneID 15975) | SID363576341 | 76.9 | 78.4 | inactive |
| Ifnar1 (GeneID 15975) | SID363579157 | 60.8 | 73.1 | inactive |
| Gpr108 (GeneID 78308) | SID363571149 | 68.3 | 43.3 | inactive |
| Gpr108 (GeneID 78308) | SID363571501 | 45.6 | 51.4 | inactive |
| Gpr108 (GeneID 78308) | SID363571853 | 73.2 | 76 | inactive |
| Slc10a3 (GeneID 214601) | SID363574873 | 120 | 92.4 | active |
| Slc10a3 (GeneID 214601) | SID363575929 | 78.2 | 75.9 | inactive |
| Slc10a3 (GeneID 214601) | SID363580505 | 74.6 | 91.2 | inactive |
| Cimip3 (GeneID 75462) | SID363540783 | 125 | 88.8 | active |
| Cimip3 (GeneID 75462) | SID363543234 | 65.5 | 61.6 | inactive |
| Cimip3 (GeneID 75462) | SID363552727 | 55.3 | 55.4 | inactive |
| Lrrd1 (GeneID 242838) | SID363542328 | 96.6 | 60.8 | inactive |
| Lrrd1 (GeneID 242838) | SID363551819 | 54.6 | 63.7 | inactive |
| Lrrd1 (GeneID 242838) | SID363559424 | 85.6 | 76.4 | inactive |
| Plp2 (GeneID 18824) | SID363554796 | 69.4 | 37.7 | inactive |
| Plp2 (GeneID 18824) | SID363568243 | 143 | 53.5 | active |
| Plp2 (GeneID 18824) | SID363586302 | 77.4 | 65.3 | inactive |
| Tcf15 (GeneID 21407) | SID363573676 | 98.2 | 89.6 | inactive |
| Tcf15 (GeneID 21407) | SID363581420 | 80.4 | 84.6 | inactive |
| Tcf15 (GeneID 21407) | SID363583884 | 77.8 | 110 | inactive |
| BC004004 (GeneID 80748) | SID363546634 | 86.5 | 36.3 | inactive |
| BC004004 (GeneID 80748) | SID363548390 | 86.1 | 83.4 | inactive |
| BC004004 (GeneID 80748) | SID363560568 | 47.4 | 41.6 | inactive |
| Cblif (GeneID 14603) | SID363545457 | 45.5 | 46 | inactive |
| Cblif (GeneID 14603) | SID363548970 | 62.2 | 55.7 | inactive |
| Cblif (GeneID 14603) | SID363562776 | 67.9 | 35.7 | inactive |
| Gtf2e2 (GeneID 68153) | SID363540176 | 70.6 | 82.9 | inactive |
| Gtf2e2 (GeneID 68153) | SID363561477 | 106 | 85.5 | inactive |
| Gtf2e2 (GeneID 68153) | SID363564513 | 101 | 65.2 | inactive |
| Cyb5r1 (GeneID 72017) | SID363572934 | 50.9 | 66.7 | inactive |
| Cyb5r1 (GeneID 72017) | SID363577510 | 117 | 118 | inactive |
| Cyb5r1 (GeneID 72017) | SID363581030 | 72.2 | 72.3 | inactive |
| Chst12 (GeneID 59031) | SID363570415 | 104 | 93.1 | inactive |
| Chst12 (GeneID 59031) | SID363579215 | 74.6 | 67.8 | inactive |
| Chst12 (GeneID 59031) | SID363583087 | 79 | 63.4 | inactive |
| Tlm (GeneID 21893) | SID363556291 | 72.3 | 70.5 | inactive |
| Tlm (GeneID 21893) | SID363586741 | 85 | 104 | inactive |
| Tlm (GeneID 21893) | SID363588849 | 111 | 80.4 | inactive |
| Cldnd1 (GeneID 224250) | SID363540865 | 95.9 | 79.9 | inactive |
| Cldnd1 (GeneID 224250) | SID363543316 | 82.1 | 73.9 | inactive |
| Cldnd1 (GeneID 224250) | SID363552809 | 75.5 | 53.1 | inactive |
| Krt1 (GeneID 16678) | SID363572119 | 88.1 | 78.1 | inactive |
| Krt1 (GeneID 16678) | SID363573879 | 52.7 | 60.6 | inactive |
